In patent publication US20130102556A1, “Use of N1,N4-bis[3-(Ethylamino)Propyl]-2-Butene-1,4-Diamine Compounds in Combination with Epigenetic-Acting Pharmaceuticals for Enhanced Cancer Therapy” (THE JOHNS HOPKINS UNIVERSITY, priority 2010, published 2013):
For at least one compound, name, drawing or mass did not settle the structure. Some results were stated once for a whole list of compounds, not compound by compound.

Assays:
Type in all cases: cell-based, human
H3K4me2 = assay: Global H3K4me2 histone mark in Calu-6 cells, Western blot of nuclear protein; details: for increased H3K4me2 levels: all cell lines thus far tested, including Calu-6, time- and dose-dependent
sFRP2 gene expression = sFRP2 gene expression in Calu-6 cells by real-time PCR; details: Calu-6, 24 hours of exposure, versus untreated
p16 gene expression = p16 gene expression in Calu-6 cells by real-time PCR; details: Calu-6, 24 hours of exposure, versus untreated
[1] = system: CDH-13 (h-cadherin) gene expression; assay: CDH-13 gene expression in Calu-6 cells by real-time PCR; details: Calu-6, 24 hours of exposure, versus untreated
GATA-4 gene expression = GATA-4 gene expression in Calu-6 cells by real-time PCR; details: Calu-6, 48 hours of treatment, versus untreated

Row | SMILES | increased H3K4me2 levels (H3K4me2) | expression of sFRP2 mRNA, single agent (sFRP2 gene expression) | expression of p16 mRNA, single agent (p16 gene expression) | H3K4me2 protein, effect of increasing treatment time (H3K4me2; Calu-6, 48 hours versus 24 hours) | expression of CDH-13 mRNA, single agent [1] | GATA-4 mRNA expression levels, single agent (GATA-4 gene expression)
1 | N=C(N)NC(=N)NCCCNCCCCCCCNCCCNC(=N)NC(=NCCC(c1ccccc1)c1ccccc1)NCCC(c1ccccc1)c1ccccc1 [Compound 2d, N,N″-bis(3,3-diphenylpropyl)-3,21-diimino-2,4,8,16,20,22-hexaazatricosanediimidamide, reference compound] | 10-20 fold |  |  |  |  | 
2 | CCNCCCNC/C=C\CNCCCNCC [PG-11047, (2Z)-N1,N4-bis[3-(ethylamino)propyl]-2-butene-1,4-diamine] |  | approximate doubling | approximate doubling | no additional effect | approximate doubling | appeared to double
3 | CCNCCCCNCCCCNCCCCNCCCCNC/C=C/CNCCCCNCCCCNCCCCNCCCCNCC [PG-11144, (22E)-N,N′-diethyl-5,10,15,20,25,30,35,40-octaazatetratetracont-22-ene-1,44-diamine, reference compound] | 10-20 fold |  |  |  |  | 
